Changes are numbered by the printed parent chain. Numbers in names are those of the source. No constants are given. Whether binding was seen depends on the method and setting. For part of these data: Binding seen in cells or lysates may run through a third protein. Some binding calls cover weakened binding; strength is not graded here. Where a sequence is shown, tags or fusion partners need not be part of it.
Legend:
[1] = molecular target: T1, Cdc19-V5 (pyruvate kinase) (S. cerevisiae) (UniProt P00549); test: co-IP
T1 sequence: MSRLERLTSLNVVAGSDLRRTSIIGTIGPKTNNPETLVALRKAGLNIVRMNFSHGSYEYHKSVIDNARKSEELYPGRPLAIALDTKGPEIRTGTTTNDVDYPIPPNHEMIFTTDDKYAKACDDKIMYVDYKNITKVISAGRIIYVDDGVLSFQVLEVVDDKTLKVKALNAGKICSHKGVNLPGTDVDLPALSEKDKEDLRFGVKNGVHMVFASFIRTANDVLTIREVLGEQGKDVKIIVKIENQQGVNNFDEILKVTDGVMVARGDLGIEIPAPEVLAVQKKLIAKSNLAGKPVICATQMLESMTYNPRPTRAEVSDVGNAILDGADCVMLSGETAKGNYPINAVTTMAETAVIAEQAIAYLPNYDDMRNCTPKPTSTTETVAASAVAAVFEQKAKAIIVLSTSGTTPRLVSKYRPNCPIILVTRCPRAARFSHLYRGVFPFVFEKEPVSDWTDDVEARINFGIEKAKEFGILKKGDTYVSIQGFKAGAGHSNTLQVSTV

Sequences of proteins named here, by UniProt entry; tags and fusion partners are left off. A change or cut given only in a name is not applied to a line headed by its entry.
UniProt P00359, whole entry: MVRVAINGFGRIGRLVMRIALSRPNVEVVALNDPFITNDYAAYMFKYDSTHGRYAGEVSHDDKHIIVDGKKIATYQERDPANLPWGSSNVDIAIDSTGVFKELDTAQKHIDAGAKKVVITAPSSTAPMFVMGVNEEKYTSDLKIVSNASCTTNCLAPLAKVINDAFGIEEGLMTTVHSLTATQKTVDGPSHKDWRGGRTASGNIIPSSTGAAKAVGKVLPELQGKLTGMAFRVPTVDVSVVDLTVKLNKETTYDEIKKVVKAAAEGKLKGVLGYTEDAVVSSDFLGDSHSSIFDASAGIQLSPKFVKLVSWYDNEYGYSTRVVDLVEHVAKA

Eno2-V5 (S. cerevisiae) = molecular target: T2, Eno2-V5 (S. cerevisiae) (UniProt P00925); test: co-IP
T2 sequence: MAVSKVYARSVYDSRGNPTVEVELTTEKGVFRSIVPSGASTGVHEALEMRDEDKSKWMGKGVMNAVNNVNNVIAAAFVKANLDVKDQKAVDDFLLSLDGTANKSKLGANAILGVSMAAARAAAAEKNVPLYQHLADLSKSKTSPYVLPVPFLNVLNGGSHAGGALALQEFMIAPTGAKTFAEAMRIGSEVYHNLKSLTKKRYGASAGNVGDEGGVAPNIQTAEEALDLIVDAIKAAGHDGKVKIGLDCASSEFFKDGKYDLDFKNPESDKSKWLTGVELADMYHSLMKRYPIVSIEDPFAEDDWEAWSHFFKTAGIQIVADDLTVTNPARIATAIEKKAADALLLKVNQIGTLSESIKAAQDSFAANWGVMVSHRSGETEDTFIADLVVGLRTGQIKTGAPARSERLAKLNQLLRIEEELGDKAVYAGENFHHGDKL

[2] = molecular target: T3, Gnd1-V5 (6-phosphogluconate dehydrogenase) (S. cerevisiae) (UniProt P38720); test: co-IP
T3 sequence: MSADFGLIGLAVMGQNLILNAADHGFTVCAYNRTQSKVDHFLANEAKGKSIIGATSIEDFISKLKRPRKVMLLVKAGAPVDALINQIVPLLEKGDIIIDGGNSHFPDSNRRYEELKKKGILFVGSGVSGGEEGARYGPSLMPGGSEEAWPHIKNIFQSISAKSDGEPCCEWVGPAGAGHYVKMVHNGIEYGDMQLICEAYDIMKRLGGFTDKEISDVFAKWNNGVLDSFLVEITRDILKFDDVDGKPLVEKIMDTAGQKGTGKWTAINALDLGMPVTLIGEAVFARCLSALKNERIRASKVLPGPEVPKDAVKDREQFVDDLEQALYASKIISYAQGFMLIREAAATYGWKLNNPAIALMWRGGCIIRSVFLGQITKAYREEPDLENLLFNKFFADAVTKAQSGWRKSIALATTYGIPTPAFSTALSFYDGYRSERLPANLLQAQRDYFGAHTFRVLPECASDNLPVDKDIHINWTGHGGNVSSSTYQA

Gpd1-V5 (S. cerevisiae) = molecular target: T4, Gpd1-V5 (S. cerevisiae) (UniProt Q00055); test: co-IP
T4 sequence: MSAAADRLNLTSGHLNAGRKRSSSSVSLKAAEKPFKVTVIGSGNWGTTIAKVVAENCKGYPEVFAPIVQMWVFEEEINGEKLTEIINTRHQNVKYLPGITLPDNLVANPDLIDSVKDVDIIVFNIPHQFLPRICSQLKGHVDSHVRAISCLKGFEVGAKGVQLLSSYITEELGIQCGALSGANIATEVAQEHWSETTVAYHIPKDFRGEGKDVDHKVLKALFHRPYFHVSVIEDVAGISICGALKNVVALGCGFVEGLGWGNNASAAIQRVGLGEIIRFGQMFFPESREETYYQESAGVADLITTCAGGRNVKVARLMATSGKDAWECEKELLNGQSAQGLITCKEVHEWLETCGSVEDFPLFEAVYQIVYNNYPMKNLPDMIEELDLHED

[3] = molecular target: Tdh3-V5 (glyceraldehyde-3-phosphate dehydrogenase) (S. cerevisiae) (UniProt P00359); test: co-IP
[4] = molecular target: T3, Gnd1-V5 (6-phosphogluconate dehydrogenase) (S. cerevisiae); test: non-reducing SDS-PAGE with immunoblot

Measured: binding

B1: Tsa1^WT-HA (peroxiredoxin Tsa1, single C-terminal HA tag at the endogenous locus) (protein, UniProt P34760 1-196)
chain: MVAQVQKQAPTFKKTAVVDGVFDEVSLDKYKGKYVVLAFIPLAFTFVCPTEIIAFSEAAKKFEEQGAQVLFASTDSEYSLLAWTNIPRKEGGLGPINIPLLADTNHSLSRDYGVLIEEEGVALRGLFIIDPKGVIRHITINDLPVGRNVDEALRLVEAFQWTDKNGTVLPCNWTPGAATIKPTVEDSKEYFEAANK
binds: all assays above

B2: Tsa1^C171S-HA (resolving cysteine mutant) (protein, UniProt P34760 1-196)
chain: B1 chain with C171S
binds: all assays above

Reference: publication doi:10.1101/2023.12.13.571451 (bioRxiv, 2023)
